Results taken from PubChem BioAssay AID493065 (National Center for Advancing Translational Sciences (NCATS), 2011).
Inconclusive means that the source gave no clear call. Such entries were picked first, then a sample of the others. A potency beside an inconclusive call is a rough fit, not a confirmed value. Active and inactive are the calls of the source. The call rests on the fitted dose curve; in most records, active means well fitted activation curve with a large enough effect; inconclusive means small, poorly fitted or top-dose-only effect; inactive means flat fitted curve, though single readings scatter.

Assay: Parental Cell Counter Screen Assay for Epigenetic Modulators: Hit Validation
Conditions: mouse c127i parental cells, 30 h; Potency: fluorescent cell count; fluorescent cell count: stronger effect = higher value, concentration not given here
Source text: NIH Molecular Libraries Screening Centers Network [MLSCN] NIH Chemical Genomics Center [NCGC] MLSCN Grant: 1 X01 MH079860-01 Assay Provider: Elisabeth D. Martinez, University of Texas SW Medical Center NCGC Assay Overview: This assay is a counter screen for the Locus Derepression (LDR) assay (PubChem AID 1865). The LDR assay detects the derepression of a GFP reporter that is stably integrated in a region of the genome of murine c127i mammary cells that is presumably silenced. Compounds that cause derepression of the locus to express GFP are identified by enumerating GFP positive cells using a laser-scanning microplate cytometer. […] Compounds active in the parental c127i cells are likely fluorescent.
NCGC Assay Protocol Summary: Three hundred cells in 5 uL per well were dispensed into black, clear-bottom 1536-well plates. Twenty-three nL compound was transferred to the assay plate and cells were incubated 30 hours at 37 C. Medium was removed, cells were washed two times with PBS, and fluorescent cells were enumerated as objects between the sizes of 20 to 120 um width and depth using a laser-scanning microplate imager (Acumen Explorer Ex3, TTP Labtech). For further details, see Johnson, RL, Huang, W, Jadhav, A, Austin, CP, Inglese, J, Martinez, ED (2008). A quantitative high-throughput screen identifies potential epigenetic modulators of gene expression. Anal Biochem 375: 237-48.

Row | SMILES | fluorescent cell count | Potency
1 | COc1cccc(/C=N/Nc2nc(Nc3ccccc3)nc(-n3nc(C)cc3C)n2)c1O | inactive: 4% | –
2 | CCN(CC)CCCNC(=O)CSc1c2c(nc3cc(Cl)ccc13)CCCC2 | inactive: 5% | –
3 | O=C1C=C(Nc2ccc(Cl)cc2)C(=O)N1c1ccc(Cl)cc1 | – | inconclusive: 35.5 µM [activator, single point]
4 | O=C1CN(c2nc(-c3ccccc3)c3cc(Cl)ccc3n2)c2ccccc2N1 | inactive: 14% | –
5 | CCCOc1cc(N(CC)CC)ccc1/C=C(/C#N)c1nc2ccc(C)cc2[nH]1 | – | active: 2.51 µM
6 | Oc1ccc(Br)cc1C=Nc1ccc2c3c(cccc13)CC2 | inactive: 2% | –
7 | COCCNC(=S)N/N=C(\C)c1ccccc1O | inactive: 4% | –
8 | CC(C)C(=O)N1CCN(c2ccc(NC(=O)c3ccc([N+](=O)[O-])o3)cc2Cl)CC1 | – | inconclusive: 28.2 µM [activator, partial curve]
9 | Cc1ccc(NC(=O)c2c(C)nc3sc(C(=O)NC4CCCC4)c(N)c3c2-c2ccco2)c(C)c1 | – | inconclusive: 31.6 µM [activator, partial curve, poor fit]
10 | COc1ccc2c(C)cc(SCC(=O)N(C)C3CCS(=O)(=O)C3)nc2c1 (stereo not given) | – | inconclusive: 35.5 µM [activator, single point]
11 | CCOC(=O)c1c(NC(=O)CC2Nc3cc(C)c(C)cc3NC2=O)sc(C)c1C (stereo not given) | – | inconclusive: 28.2 µM [activator, partial curve, poor fit]
12 | CCCCOC(=O)Cn1c2ccc(OC)cc2c2nc3ccccc3nc21 | – | inconclusive: 39.8 µM [activator, single point]
13 | CSc1nsc(/C=C/Nc2cccc(Cl)c2)c1C#N | – | active: 10 µM
14 | O=C(O)CCCCCN1C(=O)/C(=C\c2ccc(-c3ccc(Cl)cc3)o2)SC1=S | – | active: 7.94 µM
15 | COc1ccc2c(C)nc(Nc3nc(-c4ccccc4)cc(=O)[nH]3)nc2c1 | inactive: 6% | –

One compound at a time, from the list above:
`CC(C)C(=O)N1CCN(c2ccc(NC(=O)c3ccc([N+](=O)[O-])o3)cc2Cl)CC1` as listed: Potency: inconclusive: 28.2 µM [activator, partial curve]
`CCCCOC(=O)Cn1c2ccc(OC)cc2c2nc3ccccc3nc21` as listed: Potency: inconclusive: 39.8 µM [activator, single point]
